{"source": "paper PMC12581509", "binders": {"B1": {"name": "cLUC-HopH1 (HopH1 effector of Pseudomonas syringae pv. actinidiae M228) (protein, UniProt Q88A09 1-218)", "chain": "MITPSRYPGIYIAPLSNEPTAAHTFKEQAEEALDHISAAPSGDKLLRKISTLASQKDRKVTLKEIEINNQCYTEAVLSRRQLEKYEPENFNENRHIASQLSRKGTFTKGEGSNAIIGWSPDKASIRLNQNGSPLHLGMDNDDKITTLAHELVHARHVLGGSSLADGGDRYNPRTGSGKEELRAVGLDKYRYSLTKKPSENSIRAEHGLPLRMKYRAHQ"}}, "key": {"[1]": {"molecular_target": "nLUC-AcZLP1 (Actinidia chinensis ZAR1-like protein 1) (Actinidia chinensis cv. Hongyang)", "experiment": "split reporter; luciferase complementation assay (LCA): Agrobacterium strains carrying nLuc and cLuc constructs and P19 mixed 1:1:1, co-infiltrated into N. benthamiana leaves; substrate injected after two days, signal captured with a CCD camera; empty vectors as negative controls"}, "[2]": {"molecular_target": "nLUC-AeZLP1 (Actinidia eriantha ZAR1-like protein 1) (Actinidia eriantha cv. White)", "experiment": "split reporter; luciferase complementation assay (LCA): Agrobacterium strains carrying nLuc and cLuc constructs and P19 mixed 1:1:1, co-infiltrated into N. benthamiana leaves; substrate injected after two days, signal captured with a CCD camera; empty vectors as negative controls"}}, "note": "These are yes or no findings as the source states them, for the method shown. Binding seen in cells or lysates may run through a third protein. Binding calls can cover weak binding; strength is not graded here. Where a sequence is shown, tags or fusion partners need not be part of it."}
{"binder": "B1", "values": [{"measurement": "binding", "setting": "[1]", "result": "binds"}, {"measurement": "binding", "setting": "[2]", "result": "binds"}]}
